From ChEMBL document CHEMBL3988442, “University of Dundee, Small-Polar-MMV Screening Library” (2021).

Sequences of proteins named here, by UniProt entry; tags and fusion partners are left off. Residues count along the entry.
UniProt Q8IDJ8, 1-583: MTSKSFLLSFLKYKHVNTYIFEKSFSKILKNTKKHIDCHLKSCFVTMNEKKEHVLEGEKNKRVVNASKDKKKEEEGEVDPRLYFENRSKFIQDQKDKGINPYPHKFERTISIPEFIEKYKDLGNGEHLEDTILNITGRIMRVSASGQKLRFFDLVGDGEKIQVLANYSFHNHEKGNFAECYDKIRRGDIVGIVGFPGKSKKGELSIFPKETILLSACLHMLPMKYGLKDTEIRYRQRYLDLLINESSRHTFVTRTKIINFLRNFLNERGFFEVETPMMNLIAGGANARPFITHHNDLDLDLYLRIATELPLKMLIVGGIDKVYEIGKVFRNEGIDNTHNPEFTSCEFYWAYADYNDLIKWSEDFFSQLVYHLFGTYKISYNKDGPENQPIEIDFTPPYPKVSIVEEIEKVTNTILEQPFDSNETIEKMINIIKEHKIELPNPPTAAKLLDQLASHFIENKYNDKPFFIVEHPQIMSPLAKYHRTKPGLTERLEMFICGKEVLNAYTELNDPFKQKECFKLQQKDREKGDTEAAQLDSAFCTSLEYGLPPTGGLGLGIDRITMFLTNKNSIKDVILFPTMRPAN
UniProt I6X8D2, whole entry: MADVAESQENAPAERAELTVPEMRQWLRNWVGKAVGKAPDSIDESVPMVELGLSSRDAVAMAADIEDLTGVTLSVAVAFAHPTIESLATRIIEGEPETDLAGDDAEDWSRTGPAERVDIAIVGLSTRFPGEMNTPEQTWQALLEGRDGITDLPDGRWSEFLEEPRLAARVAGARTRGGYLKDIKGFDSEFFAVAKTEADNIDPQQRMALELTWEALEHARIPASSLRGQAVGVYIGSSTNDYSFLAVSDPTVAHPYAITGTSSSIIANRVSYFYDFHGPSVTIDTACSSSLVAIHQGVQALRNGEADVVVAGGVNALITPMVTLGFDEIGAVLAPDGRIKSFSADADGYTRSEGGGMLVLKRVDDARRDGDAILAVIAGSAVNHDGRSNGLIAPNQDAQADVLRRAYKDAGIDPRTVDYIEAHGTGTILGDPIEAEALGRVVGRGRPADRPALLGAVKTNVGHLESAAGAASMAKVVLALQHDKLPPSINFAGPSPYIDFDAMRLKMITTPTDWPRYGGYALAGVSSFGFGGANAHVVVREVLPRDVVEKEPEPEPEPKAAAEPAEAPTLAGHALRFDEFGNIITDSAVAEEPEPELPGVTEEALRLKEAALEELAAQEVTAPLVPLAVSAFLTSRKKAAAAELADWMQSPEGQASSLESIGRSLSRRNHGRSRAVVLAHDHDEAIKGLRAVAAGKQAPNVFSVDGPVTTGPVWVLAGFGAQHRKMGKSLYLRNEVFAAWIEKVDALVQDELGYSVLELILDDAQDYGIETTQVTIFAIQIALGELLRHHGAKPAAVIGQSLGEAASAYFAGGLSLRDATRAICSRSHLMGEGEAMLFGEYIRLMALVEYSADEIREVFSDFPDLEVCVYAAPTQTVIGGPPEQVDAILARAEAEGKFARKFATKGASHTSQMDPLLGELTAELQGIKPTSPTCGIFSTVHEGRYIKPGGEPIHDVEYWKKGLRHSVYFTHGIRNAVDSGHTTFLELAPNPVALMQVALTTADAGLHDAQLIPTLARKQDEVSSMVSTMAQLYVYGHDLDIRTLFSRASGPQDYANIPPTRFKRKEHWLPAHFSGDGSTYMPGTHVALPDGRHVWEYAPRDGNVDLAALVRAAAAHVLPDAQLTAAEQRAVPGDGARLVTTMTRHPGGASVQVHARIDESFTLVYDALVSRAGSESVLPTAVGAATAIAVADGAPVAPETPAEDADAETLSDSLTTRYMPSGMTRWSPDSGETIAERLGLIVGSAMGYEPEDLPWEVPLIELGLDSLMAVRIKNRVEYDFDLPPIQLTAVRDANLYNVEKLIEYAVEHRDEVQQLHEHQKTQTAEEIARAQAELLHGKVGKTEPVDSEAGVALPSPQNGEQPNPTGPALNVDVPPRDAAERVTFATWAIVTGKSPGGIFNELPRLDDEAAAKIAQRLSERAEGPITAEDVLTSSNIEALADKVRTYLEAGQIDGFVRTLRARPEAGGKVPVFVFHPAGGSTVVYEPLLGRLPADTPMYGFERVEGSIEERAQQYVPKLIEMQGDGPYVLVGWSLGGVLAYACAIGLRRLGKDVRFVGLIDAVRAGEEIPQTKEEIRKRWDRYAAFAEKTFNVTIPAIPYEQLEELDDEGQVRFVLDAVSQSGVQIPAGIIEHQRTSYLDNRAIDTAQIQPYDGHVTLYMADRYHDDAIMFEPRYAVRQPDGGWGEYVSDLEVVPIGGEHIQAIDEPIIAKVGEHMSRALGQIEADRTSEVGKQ
UniProt P9WFT3, whole entry: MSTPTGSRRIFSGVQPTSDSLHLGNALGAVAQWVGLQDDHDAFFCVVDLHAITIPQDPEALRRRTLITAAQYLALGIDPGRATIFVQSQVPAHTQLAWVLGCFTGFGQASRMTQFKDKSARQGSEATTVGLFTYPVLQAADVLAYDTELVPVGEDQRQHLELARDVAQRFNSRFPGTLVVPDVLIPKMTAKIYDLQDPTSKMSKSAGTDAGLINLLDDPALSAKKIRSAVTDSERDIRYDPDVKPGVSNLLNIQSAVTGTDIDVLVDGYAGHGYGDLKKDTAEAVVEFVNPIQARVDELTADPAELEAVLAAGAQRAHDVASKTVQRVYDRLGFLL
UniProt Q4DA54, 1-478: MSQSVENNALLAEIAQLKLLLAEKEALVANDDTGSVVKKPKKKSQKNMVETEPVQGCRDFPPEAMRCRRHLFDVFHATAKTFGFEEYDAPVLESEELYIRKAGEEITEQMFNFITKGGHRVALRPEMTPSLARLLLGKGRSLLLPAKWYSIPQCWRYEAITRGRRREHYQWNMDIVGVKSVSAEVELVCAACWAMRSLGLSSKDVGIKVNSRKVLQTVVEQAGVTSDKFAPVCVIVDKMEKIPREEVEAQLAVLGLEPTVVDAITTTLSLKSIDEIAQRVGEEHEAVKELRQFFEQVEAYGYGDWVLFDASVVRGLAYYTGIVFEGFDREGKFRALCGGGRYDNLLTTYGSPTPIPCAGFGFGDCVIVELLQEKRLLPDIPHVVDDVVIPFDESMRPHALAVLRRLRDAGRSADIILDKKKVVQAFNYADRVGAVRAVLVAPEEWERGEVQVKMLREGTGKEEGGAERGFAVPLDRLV

Values are the deposited “Percent Effect”, in %.
The controls that fix the scale are not given in the record; negative values are as filed.
This is an unselected part of the compounds tested.
A dash means the value is not listed here; it may have been measured.

PfKRS1: 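Enzyme assay of the cytosolic lysyl-tRNA synthetase in 384-well plates, read by luminescence. Target: Lysine-tRNA ligase, Plasmodium falciparum 3D7 (UniProt Q8IDJ8). Tested at 30 µM. Direction is inferred from only a few compounds that gave an IC50; most scored high, so higher reads as stronger inhibition. Size under these conditions: about 69,000 compounds, about 49 of them at 50% or above in at least one test.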
Pks13 thioesterase: 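Enzyme assay of the thioesterase domain of polyketide synthase 13; the read-out is not stated. Target: Polyketide synthase Pks13, Mycobacterium tuberculosis (UniProt I6X8D2). Tested at 30 µM. Higher reads as stronger inhibition (inferred from which compounds were picked for retests). Of about 67,000 compounds tested this way, about 300 (0.46%) reached 50% or more in at least one test.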
MtTrpRS: 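Tryptophan-tRNA ligase, Mycobacterium tuberculosis (UniProt P9WFT3). Enzyme assay of tryptophanyl-tRNA synthetase; the read-out is not stated. Tested at 10 µM. Higher most likely means stronger inhibition; the record gives no direction and few retests gave an IC50. Size under these conditions: about 65,000 compounds, about 64 of them at 50% or above in at least one test.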
TcHisRS: 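Histidine-tRNA ligase, Trypanosoma cruzi CL Brener (UniProt Q4DA54). Enzyme assay of histidyl-tRNA synthetase; the read-out is not stated. Concentration: 30 µM. The record gives no direction; compounds that gave an IC50 in retests scored well above the rest, so higher reads as stronger inhibition. About 69,000 compounds were tested under these conditions; 0.045% (about 31) showed 50% or more at least once.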

structure	PfKRS1	Pks13 thioesterase	MtTrpRS	TcHisRS
CCc1ccc(CNCC2CCN(CCO)CC2)cc1	-2.022%	-4.084%	-1.801%	3.093%
CS(=O)(=O)N[C@@H]1CCO[C@]2(CCN(C(=O)c3cnccn3)C2)C1	2.27%	-34.15%	-2.877%	6.077%
Cc1ccc(NC(=O)CN2CCCNC2=O)c(SC(F)(F)F)c1	3.246%	-7.207%	-6.208%	7.368%
CCc1nc(CN(C(C)=O)C2CCN(Cc3cnc(C)cn3)C2)no1 (stereo not shown)	7.099%	-24.72%	-2.754%	3.759%
CC(=O)NCCNC(=O)CN1CCOC(Cn2cc(C)cn2)C1 (stereo not shown)	1.729%	-7.992%	5.112%	1.127%
NC(=O)c1cnn2c1NCC(CNC1(c3ccccc3)CCC1)C2 (stereo not shown)	2.6%	4.141%	-1.728%	9.901%
Cc1cc(CNS(=O)(=O)CCCC#N)ccc1N(C)C	1.664%	3.452%	-0.757%	15.08%
CC(C)c1nccn1C1CCCN(C(=O)c2cc(C3CC3)on2)C1 (stereo not shown)	1.799%	-8.997%	-5.48%	5.78%
Cc1ccc(-c2ncc(CNc3cnccc3CO)s2)o1	3.243%	-15.15%	-1.814%	6.341%
COc1ccc2c(c1)CN(Cc1nc3c(cnn3C)c(=O)[nH]1)CC2	6.72%	-47.2%	-1.18%	-2.256%
CSc1ccsc1C(=O)NC(Cc1ccccc1)C(N)=O (stereo not shown)	6.599%	10.55%	-0.08818%	4.926%
CCOC(=O)CC1CCCCN1C(=O)c1cc(=O)[nH]c(=O)[nH]1 (stereo not shown)	-0.871%	16.68%	6.867%	3.804%
CCN(CC)C(=O)CSc1ccc(C(F)(F)F)cn1	5.762%	-	1.852%	-20.69%
Cc1cc(C)cc(CN2CCN(Cc3cccc(CCN)c3)CC2=O)c1	10.8%	-11.24%	0.3221%	36%
Cc1cnc(NC(=O)c2csc(NCC(C)C)n2)s1	5.705%	-12.36%	-3.585%	4.848%
CN(Cc1noc(-c2ccccc2)n1)C(=O)CSc1nnc(N)s1	-1.553%	22.53%	-3.936%	4.02%
Cc1cc2c(cc1NC(N)=O)OCO2	7.327%	13.64%	-2.917%	4.663%
CCOc1ccnc(N2CCN(C(=O)CCc3ccsc3)CC2)n1	1.021%	-	0.1679%	2.041%
COc1cc(CNC(=O)C2CC(=O)N(C(C)C)C2)ccn1 (stereo not shown)	1.665%	-6.088%	-7.053%	1.527%
Cc1ccc(CNC(=O)N2CCN(Cc3ccsc3)CC2)n1C	-1.567%	-15.34%	-1.943%	4.151%
NC(=O)C1CCN(c2cncc(-n3cccn3)n2)CC1	-2.42%	9.011%	1.652%	-8.621%
CCOC(=O)N1CCC(C(=O)Nc2nnc(C(F)(F)F)[nH]2)CC1	6.87%	30.09%	9.963%	2.463%
Cc1nc(C2CCN(C(=O)c3cccnc3)CC2)c2sccn12	7.395%	-37.4%	6.94%	1.622%
Cc1nonc1CC(=O)N1CCC2(CCCN(C3CCOCC3)C2=O)C1 (stereo not shown)	4.096%	-1.08%	4.77%	7.035%
CCn1ccnc1CN1CCCC(CO)(Cc2cccc(OC)c2)C1 (stereo not shown)	7.887%	-16%	3.078%	2.326%
Cc1n[nH]c(C)c1CNCC(O)c1cccc(Cl)c1 (stereo not shown)	3.653%	-13.14%	-4.956%	1.724%
Cc1n[nH]c(=O)c2c(NC(=O)CN3CCC(C)CC3)oc(C)c12	1.92%	43.29%	-1.319%	-1.667%
Cc1nc(CN2CCCC(N(C)Cc3cnn(C)c3)C2)no1 (stereo not shown)	-3.065%	-7.051%	0.3856%	3.067%
CCS(=O)(=O)NCCNc1cc(-n2cccc2)ncn1	6.168%	-22.8%	1.14%	0%
c1cnnc(N2CCCC2CNCc2ccsc2)c1 (stereo not shown)	1.688%	-6.473%	0.2227%	0%
COc1cc(C2CC(=O)NCc3nc4sccn4c32)cc(OC)c1O (stereo not shown)	3.661%	3.07%	0.2894%	0%
CCc1ncnc2c1CCN(Cc1nccs1)CC2	6.867%	-10.67%	-1.443%	3.448%
c1cnc(NCc2cncc3c2CCN(Cc2cccs2)C3)nc1	0.2502%	-26.65%	1.762%	4.918%
Cc1cc(N2CCCC(OC(=O)CCc3cnn(C)c3)C2)nc(C)n1 (stereo not shown)	1.043%	-18.99%	-0.1638%	9.392%
COCc1ncn2c1CN(C(=O)c1ccc3ccccc3n1)CC2	-0.6251%	-14.82%	0.8167%	1.869%
CCc1nc(CN2CC(C(=O)OC)O[C@H](C)C2)cs1 (stereo partly shown)	4.391%	-7.181%	-4.179%	8.333%
O=C(c1cccnc1)N1CCN2C(=O)N(Cc3ccc(F)cc3)C[C@H]2C1	1.529%	2.863%	11.07%	8.911%

2 of the entries, repeated:

| structure | PfKRS1 | Pks13 thioesterase | MtTrpRS | TcHisRS |
|---|---|---|---|---|
| `Cc1cc(CNS(=O)(=O)CCCC#N)ccc1N(C)C` | 1.664% | 3.452% | -0.757% | 15.08% |
| `c1cnc(NCc2cncc3c2CCN(Cc2cccs2)C3)nc1` | 0.2502% | -26.65% | 1.762% | 4.918% |